Measured values taken from patent US7994281 (EUROPEAN MOLECULAR BIOLOGY LABORATORY, dated 2011).
Changes are numbered by the printed parent chain. Names may count otherwise. Results are given in words; binding and its absence hold for the method and conditions named.

T1: murine RANK (receptor) (murine, UniProt O35305 31-214, limits assumed)
T1 construct: Control surface in the SPR screening
T1 sequence (looked up): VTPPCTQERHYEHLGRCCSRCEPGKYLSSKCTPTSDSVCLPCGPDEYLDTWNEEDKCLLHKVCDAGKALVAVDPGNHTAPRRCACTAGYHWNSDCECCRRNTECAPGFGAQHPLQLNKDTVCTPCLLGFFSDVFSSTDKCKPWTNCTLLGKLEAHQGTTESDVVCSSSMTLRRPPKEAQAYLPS

B1: TRAIL mutant D269H (ligand)
chain: VRERGPQRVAAHITGTRGRSNTLSSPNSKNEKALGRKINSWESSRSGHSFLSNLHLRNGELVIHEKGFYYIYSQTYFRFQEEIKENTKNDKQMVQYIYKYTSYPDPILLMKSARNSCWSKDAEYGLYSIYQGGIFELKENDRIFVSVTNEHLIDMHHEASFFGAFLVG
B2: TRAIL mutant R149D (ligand)
chain: B1 chain with R36D, H156D
B3: TRAIL mutant I220M (ligand)
chain: B1 chain with I107M, H156D
B4: TRAIL mutant R149H (ligand)
chain: B1 chain with R36H, H156D

Each binder was assayed against T1, murine RANK (receptor) (assay: condition: extract diluted 1:50, concentration not given; SPR (Biacore): clarified E. coli extract diluted 1:50 injected over immobilised DR4, DR5, DcR1 and RANK; bars are the response as a fraction of the DR5 response).

Row | binding | Binder
1 | no binding | B1
2 | no binding | B2
3 | no binding | B3
4 | no binding | B4

Each binder was assayed against T1, murine RANK (receptor) (assay: condition: extract diluted 1:50, concentration not given; SPR (Biacore): clarified E. coli extract diluted 1:50 injected over immobilised DR4, DR5, DcR1 and RANK; bars are the response as a fraction of the DR4 response).

Row | binding | Binder
5 | no binding | B1
6 | no binding | B2
7 | no binding | B3
8 | no binding | B4
